Results published in patent US20140322129A1 (Genentech, published 2014).
No constants are given. Whether binding was seen depends on the method and setting. Some results given as binding are weak or reduced against the parent protein; the word gives no strength.

Sequences of proteins named here, by UniProt entry; tags and fusion partners are left off. A change or cut given only in a name is not applied to a line headed by its entry.
UniProt Q7TSP5: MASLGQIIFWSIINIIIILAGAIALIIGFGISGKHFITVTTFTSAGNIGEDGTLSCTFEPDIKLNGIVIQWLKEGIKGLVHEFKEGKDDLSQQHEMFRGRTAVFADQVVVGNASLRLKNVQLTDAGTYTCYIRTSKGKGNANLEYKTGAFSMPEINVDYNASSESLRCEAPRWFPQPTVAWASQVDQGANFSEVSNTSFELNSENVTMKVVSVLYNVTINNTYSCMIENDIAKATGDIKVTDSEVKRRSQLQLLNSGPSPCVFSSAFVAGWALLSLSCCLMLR

B1: ch22C10 (antibody, human IgG1, V domains shown)
VH: QVQLQQPGAELVKPGTSVKLSCKASGYTFTNFWIHWVIQRPGQGLEWIGEIDPSDSYTNYNQKFKGKATLTVDKSSNTAYMQLSSLTSEDSAVYYCSREITTVDYWGQGTTLTVSS
VL: QIVLTQSPTIMSASPGEKVTLTCSATSSISYMHWYQQKPGTSPKGWIYDTSKLAHGVPARFSGSGSGTSYSLTISSMEAEDAATYYCHQRRSYPFTFGSGTKLEIK
notes: also called chimeric 22C10; ch2210
B2: murine 1D11 (antibody, V domains shown)
VH: QVQLQQSGAELVRPGTSVKMSCKASGYTFTSYWIGWAKQRPGHGFEWIGDIYPGGGYTNYNEKFKGKATLTADKSSSTAYMQFSSLTSEDSAIYYCARLDGSSYRGAMDSWGQGTSITVSS
VL: DIQMTQSPSSLSASLGGKVTITCKASQGFNKYVAWYQHKPGQCPRLLIHYTSTLQPGIPARFSGSGSGRDYSFSISNLEPEDSATYFCLQYGNLLYAFGGGTKLEIKR
B3: ch9B9 (antibody, human IgG1, V domains shown)
VH: QVQLQQSGAELMKPGASVKMSCKATGYTFSSYWIEWVKQRPGHGLEWIGEILPGTSITTYNAKFKVKATFTADTSSNTAYMQLSSLTSEDSAVYFCARYYFGSSSFYFDYWGQGTSLTVSS
VL: QAVVTQESALTTSPGDTVTLTCRSSTGAVTTSNYANWVQEKPDHLFTGLIGGTNNRVPGVPARFSGSLIGDKAALTITGAQTEDEAMYFCALWYNNHWVFGGGTKLE
notes: also called chimeric 9B9

Biological target: mouse B7-H4 (mouse) (UniProt Q7TSP5)
Test: FACS, hybridoma clone on stable cell line expressing recombinant mouse B7-H4

Binder | binding
B1 | binds
B2 | binds
B3 | binds
